# Experimental data taken from publication PMC7769458.
# By UniProt entry, the sequences of proteins in these tests, tags left out. Residues count along the entry.
# UniProt P11487, residues 18-239: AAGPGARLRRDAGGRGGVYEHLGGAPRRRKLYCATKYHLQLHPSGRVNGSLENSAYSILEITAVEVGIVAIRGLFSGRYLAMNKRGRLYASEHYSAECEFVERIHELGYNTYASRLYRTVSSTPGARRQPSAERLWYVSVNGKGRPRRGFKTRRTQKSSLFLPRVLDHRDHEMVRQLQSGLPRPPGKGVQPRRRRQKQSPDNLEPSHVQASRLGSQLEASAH
# UniProt P10767, residues 38-208: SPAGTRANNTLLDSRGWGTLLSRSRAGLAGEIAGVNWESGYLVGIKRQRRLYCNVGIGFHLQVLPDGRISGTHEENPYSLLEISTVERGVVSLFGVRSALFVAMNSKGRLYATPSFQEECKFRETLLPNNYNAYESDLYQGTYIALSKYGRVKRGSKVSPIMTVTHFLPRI
# UniProt Q9HCT0, residues 23-170: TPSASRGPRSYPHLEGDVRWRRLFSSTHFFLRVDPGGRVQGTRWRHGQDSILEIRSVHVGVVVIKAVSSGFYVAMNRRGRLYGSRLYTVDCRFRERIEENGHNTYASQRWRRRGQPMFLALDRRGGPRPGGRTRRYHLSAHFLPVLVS
# UniProt P08620, residues 31-206: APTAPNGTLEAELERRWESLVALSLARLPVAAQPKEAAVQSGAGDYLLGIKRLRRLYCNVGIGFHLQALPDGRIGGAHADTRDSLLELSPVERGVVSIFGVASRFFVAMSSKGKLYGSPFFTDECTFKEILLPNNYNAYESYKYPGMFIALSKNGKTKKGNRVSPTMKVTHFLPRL
# UniProt P12034, residues 21-268: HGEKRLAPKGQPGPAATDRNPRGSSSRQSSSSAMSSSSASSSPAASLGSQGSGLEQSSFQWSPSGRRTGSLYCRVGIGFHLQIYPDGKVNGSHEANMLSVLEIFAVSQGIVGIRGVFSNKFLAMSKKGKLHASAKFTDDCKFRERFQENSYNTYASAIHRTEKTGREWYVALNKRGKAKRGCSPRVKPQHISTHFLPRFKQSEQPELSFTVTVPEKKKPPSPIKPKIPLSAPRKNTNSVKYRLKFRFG
# UniProt P21781, residues 32-194: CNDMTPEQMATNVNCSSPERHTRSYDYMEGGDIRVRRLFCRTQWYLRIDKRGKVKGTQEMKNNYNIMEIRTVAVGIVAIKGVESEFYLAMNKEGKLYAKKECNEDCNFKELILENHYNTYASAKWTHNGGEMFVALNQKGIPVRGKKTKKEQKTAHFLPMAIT
# UniProt O15520, residues 38-208: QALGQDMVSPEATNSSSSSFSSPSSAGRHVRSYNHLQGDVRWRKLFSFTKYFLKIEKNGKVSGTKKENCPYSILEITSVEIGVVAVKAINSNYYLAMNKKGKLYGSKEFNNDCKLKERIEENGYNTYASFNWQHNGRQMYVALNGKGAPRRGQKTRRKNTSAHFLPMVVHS
# These are yes or no findings as the source states them, for the method shown.
# Biological target: Recifercept (human)
# Assay: SPR; Biacore T200; Recifercept amine-coupled on a CM5 chip (about 400 RU); hFGF injected in HBS-EP (0.01 M HEPES, 0.15 M NaCl, 3 mM EDTA, 0.05% polysorbate 20, pH 7.4) at 50 ul/min; single cycle kinetics, 5 concentrations from 0 to 16 nM; global 1:1 fit; triplicate; both purified
row,binding,Substance
1,no binding (tested: 16 nM),human FGF3 (from UniProt P11487 18-239) (ligand)
2,no binding (tested: 16 nM),human FGF6 (from UniProt P10767 38-208) (ligand)
3,no binding (tested: 16 nM),human FGF22 (from UniProt Q9HCT0 23-170) (ligand)
4,no binding (tested: 16 nM),human FGF4 (from UniProt P08620 31-206) (ligand)

# More lines, now with the values behind:
row,Substance,binding
1,human FGF5 (from UniProt P12034 21-268) (ligand),no binding (tested: 16 nM)
2,human FGF7 (from UniProt P21781 32-194) (ligand),no binding (tested: 16 nM)
3,human FGF10 (from UniProt O15520 38-208) (ligand),no binding (tested: 16 nM)
